Assay results from PubChem BioAssay AID602254 (Broad Institute, 2012).
In all, about 1,000 compounds went through this assay and fewer than 10 were called active.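 How the source made its calls: active means fitted half-maximal concentration no higher than twice the top valid tested dose, with signal falling; inconclusive means flat curve with 30 to 70% inhibition, or poor fit; inactive means the rest.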 This is one part of the list. Potency and affinity values are given separately.

target: Golgi-associated PDZ and coiled-coil motif-containing protein (Homo sapiens) (UniProt Q9HD26); experiment: CAL PDZ domain peptide-binding inhibitors, dose response, biochemical, fluorescence polarization, untagged CAL PDZ, cherry-pick, set 2 (AID 602254); settings: Purified CAL PDZ, TMR peptide fluorescence polarization; at 60 µM (top of the series);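 further: 0% = DMSO neutral control and -100% = unlabeled peptide PRC23 positive control; more negative means stronger blocking of peptide binding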

Activity change, negative = inhibition, inactive:
Cc1onc(-c2c(Cl)cccc2Cl)c1C(=O)N1CCN(c2ncccn2)CC1 2.53%
CCN(CC)CCNC(=O)C(=O)Nc1ccc(C(=O)OC)cc1 0.084%
CCN(c1ccccc1)S(=O)(=O)c1ccc(C(=O)N2CCN(c3ccccc3)CC2)cc1 -4.12%
CN(Cc1cnccn1)Cc1nc(Cc2ccccc2F)no1 0.187%
O=S(=O)(NC1CCCC1)c1ccc(-n2cnnn2)cc1 0.658%
Brc1ccc(-n2cnc(-c3ccccc3)c2)cc1 -2.22%
CCN1C(=O)c2ccc(C(=O)Nc3ncc(C)s3)cc2C1=O -0.423%
N#CCCN(Cc1ccccc1)S(=O)(=O)c1cccs1 -4.2%
Cc1nnsc1C(=O)Nc1cccc(Cl)c1 1.76%
Cc1cc(CNC(=O)C2CCC(=O)N(CCc3ccc(Cl)cc3)C2)no1 (stereo not given) 1.48%
COC(=O)c1sccc1NC(=O)CC1NCCNC1=O (stereo not given) 5.3%
Cc1ccc(S(=O)(=O)Nc2cccc(-n3cnnn3)c2)cc1 1.15%
CC(C)CNC(=O)c1cccc(NC(=O)c2ccccc2-c2ccccc2C(=O)O)c1 7.77%
O=C(N[C@@H](Cc1c[nH]c2ccccc12)C(=O)O)C1CCN(S(=O)(=O)c2cccs2)CC1 -1.24%
COc1cc(OC)cc(C(=O)OC(C)C(=O)NC2CCCc3ccccc32)c1 (stereo not given) -0.23%
O=C(CCCN1C(=O)/C(=C\c2ccccc2)SC1=S)Nc1ccc(O)cc1C(=O)O 4.36%
Cc1cc(F)ccc1NC(=O)CCc1c(C)nn(-c2ccc(N3CCCCC3)nn2)c1C 1.15%
CC(C)Nc1cc(C(C)(C)C)nc2c(-c3ccccc3)cnn12 -5.56%
COc1ccc(Br)cc1CNc1ccc2[nH]c(=O)[nH]c2c1 -3.88%
Cc1cccc(OCCCn2c(CO)nc3ccccc32)c1 1.72%
O=C(Nc1ccccc1F)c1ccc(CN2CCc3ccccc3C2)cc1 -0.957%
Cc1cc(=O)oc2cc(OCC(=O)Nc3nnc(C4CC4)s3)ccc12 3.11%
COc1ccc(/C=C/CN2CCCC(CO)(Cc3cccc(Cl)c3)C2)cc1 (stereo not given) 2.42%
Cc1ccc(CSc2ccc(S(=O)(=O)N3CCCC3)cn2)cc1 -3.58%
O=C(NNC(=O)c1ccc[nH]1)Nc1cccc(C(F)(F)F)c1 -0.191%
Cc1cc(OCC(=O)NCc2ccccn2)c2c(C)cc(=O)oc2c1 -0.153%
COc1ccc(NC2CCCN(C(=O)c3csc(C(C)C)n3)C2)cc1 (stereo not given) -1.33%
O=C1OC(CO)CN1Cc1ccccc1 (stereo not given) -3.64%
CCc1noc(C)c1C(=O)N1CCN(S(=O)(=O)c2cccs2)CC1 -1.19%
Cc1ccc(S(=O)(=O)NCCC(=O)NC(C)CCc2ccccc2)cc1 (stereo not given) 1.68%
Cc1cccc(N(CC(=O)NCc2ccc3c(c2)OCO3)C(=O)CCC(=O)Nc2ccccn2)c1C 6.57%
COc1ccccc1C(=O)Nc1ccc2c(c1)nc(CN1CCCCC1)n2C 3.14%
CCCCCCC(=O)Oc1cccc(N2C(=O)C3CCCCC3C2=O)c1 (stereo not given) 2.95%
COc1ccc(C(C)NC(=O)c2ccncc2)cc1OC (stereo not given) 3.67%
CCOC(=O)c1cnc2nc(C(F)(F)F)[nH]n2c1=O 2.92%
NC(=O)CC1C(=O)N(c2ccc(Cl)cc2)C(=S)N1NC(=O)c1cccc(F)c1 (stereo not given) -2.21%
N#CCc1ccc(OC(=O)Nc2ccccc2)cc1 2.23%
CN(C)CCCCOc1ccc(Br)cc1Cl 1.37%
COc1cccc(-c2nn(-c3ccc(C)cc3)cc2C(=O)N(C)CC(=O)Nc2cccc(F)c2)c1 0.312%
O=C(COC(=O)Cc1c(F)cccc1Cl)NC(=O)c1ccccc1 -4.75%
COC(=O)c1ccc(NC(=O)CN2C(=O)NC3(CCC(C)CC3)C2=O)cc1 (stereo not given) 0.218%
c1ccc(CN2CCCC3(CCCN(Cc4nc(COc5ccccc5)no4)C3)C2)cc1 (stereo not given) -0.026%
CCN(Cc1cnn(C)c1)C(=O)C1CCC(=O)N(CCc2ccc(OC)cc2)C1 (stereo not given) 0.165%
Cc1ccc(C)c(NC(=S)NCCN(C2CCCCC2)C2CCCC2)c1 1.16%
Cc1onc(-c2ccc(Cl)cc2Cl)c1-c1csc(N/N=C/c2ccccc2)n1 -10.3%
Cc1ccc(NC(=S)NC2CCN(Cc3ccccc3)CC2)cc1C -0.836%
O=C(Nc1ccc(F)cc1)c1cc(-c2ccccc2)no1 -2.38%
Cc1nn(-c2ccccc2)c(C)c1NC(=O)COC(=O)c1ccc(Cl)c(S(N)(=O)=O)c1 3.11%
CC(=O)N1c2ccc(S(=O)(=O)N3CCC(C(=O)Nc4cc(C)ccn4)CC3)cc2CC1C (stereo not given) 2.78%
O=C(CN1CCN(CC(=O)Nc2cccc(F)c2)CC1)Nc1ccc(-c2ccccc2)cc1 -1.28%
COc1ccc(NC(C)=O)cc1NC(=O)C1CCCN1C(=O)c1cccs1 (stereo not given) 0.79%
Cc1ccc(S(=O)(=O)N(C)CC(=O)NCCCn2nc(C)cc2C)cc1 -1.11%
CC(=O)N1c2ccc(S(=O)(=O)N3CCC(C(=O)NC4CCCCC4)CC3)cc2CC1C (stereo not given) -0.953%
NC(=O)c1c(NC(=O)c2ccccc2F)sc2c1CCCC2 0.485%
CSc1cccc(NC(=S)NN(C)C)c1 6.39%
Cn1c(C(=O)N2CCN(c3ccccc3)CC2)cc2cc(Cl)ccc21 -1.02%
CC(=O)c1cccc(NC(=O)c2cccc3ccccc23)c1 5.97%
CN(C)c1ccc(/C=N\Nc2nc(-c3ccccc3)cc(=O)[nH]2)cc1 -6.31%
CN(CC(=O)Nc1cc(Cl)ccc1C#N)C1CCS(=O)(=O)C1 (stereo not given) 2.32%
CN(CC(=O)Nc1ccccc1Cl)C(=O)CN1C(=O)NC(c2ccccc2)(c2ccccc2)C1=O 1.72%
CC1CN(C(=O)c2cccc(S(=O)(=O)Nc3cc(Cl)ccc3Cl)c2)CC(C)O1 (stereo not given) -3.54%
O=C(COC(=O)c1ccc2c(c1)OCO2)NCc1ccc(Cl)cc1 0.258%
CN(Cc1ccccc1)S(=O)(=O)c1ccc(N2CCOCC2)nc1 -1.75%
O=C(c1ccc(S(=O)(=O)N2CCCCCC2)cc1)N1CCN(c2ccccc2)CC1 -2.65%
COc1ccc(OCC(O)CNC(=O)c2ccc(Br)cc2)cc1 (stereo not given) 0.664%
COc1ccc(CN2CCNC(=O)C2CC(=O)N(C)CCC2CCOCC2)cc1OC (stereo not given) -1.69%
CCOC(=O)c1c(NC(=O)CN2CCC(C)CC2)sc(C)c1C 2.58%
COc1ccc(NC(=O)Oc2cc(C)ccc2C(C)C)cc1 -0.959%
Cc1noc(NS(=O)(=O)c2ccc(NC(=O)c3ccc(N(C)C)cc3)cc2)c1C -0.732%
Cc1nnsc1C(=O)NC1CCCc2c1cnn2-c1ccc(C(C)(C)C)cc1 (stereo not given) 0.328%
O=C(NCc1ccccc1)c1ncn[nH]1 -7.09%
Cc1ccc(S(=O)(=O)N2CCOCC2)cc1C(=O)N1CCN(c2ncccn2)CC1 0.348%
O=C(NCc1cccs1)c1ccncc1 1.91%
COc1cc(/C=N/N2C(=O)CSC2=S)cc(Br)c1O 89.3%
CN(C(=O)c1cccc(C(F)(F)F)c1)C1CCCc2ccccc21 (stereo not given) -1.53%
Cc1ccc(S(=O)(=O)N(C)C)cc1NC(=S)N1CCc2ccccc21 0.484%
CCOC(=O)N1CCN(C(=O)CNCc2cccs2)CC1 -0.231%
Cc1ccc(C(C)C)cc1OCCn1cncn1 -1.32%
COc1ccccc1C(=O)Oc1ccccc1C(=O)Nc1ccccc1 -11.9%
CC1CCC(C(C)C)C(OCC(O)CNC(C)(C)C)C1 (stereo not given) -1.66%
O=C(NCc1cccc(Cl)c1)C1CCC(=O)N(CCCN2CCCC2=O)C1 (stereo not given) 0.114%
N#Cc1ccc(NC(=O)NN2CCCCCC2)cc1 2.36%
CCCCN1C[C@H](COC(=O)CCC)Oc2cccc(F)c2S1(=O)=O -0.292%
CCOc1ccc2cc(S(=O)(=O)N3CCCCC3)ccc2c1 -3.02%
COC(=O)C(CC(=O)c1ccc(C)cc1)n1nc(C)cc1C (stereo not given) 1.03%
CCN(CC)S(=O)(=O)c1ccc(N2CC(C(=O)NCCC3=CCCCC3)CC2=O)cc1 (stereo not given) -5.04%
O=C(c1ccccc1)c1ccccc1NC(=O)C1CCCN1Cc1ccccc1 (stereo not given) -3.61%
COc1cccc(NC(=O)c2ccc3nsnc3c2)c1 1.47%
CC(C)NC(=O)COc1coc(CN2CCN(c3ccccc3F)CC2)cc1=O -3%
Cc1ccsc1CN1CCC(C(=O)NCc2ccccc2Cl)CC1 0.835%
CCCCN1C[C@H](CO)Oc2cccc(F)c2S1(=O)=O 0.778%
Cc1cc(O)c(Sc2ccc(Cl)cc2)c(=O)[nH]1 -0.176%
CC(C)n1cc(/C=N/Nc2ccc(C(=O)O)cc2)c2ccccc21 -1.14%
O=S(=O)(NCCc1ccccc1)c1ccc(-n2cnnn2)cc1 0.275%
COc1ccc(OC)c(NC(=O)NNC(=O)CCCOc2ccc(Cl)cc2C)c1 0.743%

Already shown: 6 of the compounds above.
Activity change, negative = inhibition, inactive:
Cc1cccc(OCCCn2c(CO)nc3ccccc32)c1 1.72%
O=C(Nc1ccccc1F)c1ccc(CN2CCc3ccccc3C2)cc1 -0.957%
Cc1cc(=O)oc2cc(OCC(=O)Nc3nnc(C4CC4)s3)ccc12 3.11%
COc1ccc(/C=C/CN2CCCC(CO)(Cc3cccc(Cl)c3)C2)cc1 (stereo not given) 2.42%
Cc1ccc(CSc2ccc(S(=O)(=O)N3CCCC3)cn2)cc1 -3.58%
O=C(NNC(=O)c1ccc[nH]1)Nc1cccc(C(F)(F)F)c1 -0.191%
